Test results published in the supplement of paper PMC10849652.
The other results are listed elsewhere or left out.

Chains of the proteins cited; added tags and fusions are not shown. Lines headed by an entry give the natural chain unless they say otherwise; changes in a name come on top.
UniProt O15162: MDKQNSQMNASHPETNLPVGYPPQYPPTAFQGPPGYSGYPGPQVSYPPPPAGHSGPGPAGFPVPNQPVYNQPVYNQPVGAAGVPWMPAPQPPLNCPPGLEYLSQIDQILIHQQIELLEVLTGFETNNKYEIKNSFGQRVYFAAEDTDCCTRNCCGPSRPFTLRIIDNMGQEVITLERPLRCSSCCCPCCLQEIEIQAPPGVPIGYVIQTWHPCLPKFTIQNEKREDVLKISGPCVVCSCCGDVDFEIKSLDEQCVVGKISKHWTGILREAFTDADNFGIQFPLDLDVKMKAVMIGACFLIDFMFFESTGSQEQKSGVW
UniProt O75439: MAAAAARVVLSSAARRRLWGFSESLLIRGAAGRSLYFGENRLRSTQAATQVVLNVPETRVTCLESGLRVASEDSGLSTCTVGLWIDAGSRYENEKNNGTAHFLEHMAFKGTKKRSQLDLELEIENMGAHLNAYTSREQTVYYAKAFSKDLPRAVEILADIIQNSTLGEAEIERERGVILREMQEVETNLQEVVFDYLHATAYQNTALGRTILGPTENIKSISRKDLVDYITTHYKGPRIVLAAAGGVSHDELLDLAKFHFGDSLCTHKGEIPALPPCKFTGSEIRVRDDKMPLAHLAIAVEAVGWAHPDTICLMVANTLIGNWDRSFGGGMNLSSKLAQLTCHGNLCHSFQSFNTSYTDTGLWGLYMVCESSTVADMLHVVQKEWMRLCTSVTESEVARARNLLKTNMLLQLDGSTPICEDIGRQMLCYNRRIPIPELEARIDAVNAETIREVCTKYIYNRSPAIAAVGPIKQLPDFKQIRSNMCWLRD
UniProt Q9NQ55: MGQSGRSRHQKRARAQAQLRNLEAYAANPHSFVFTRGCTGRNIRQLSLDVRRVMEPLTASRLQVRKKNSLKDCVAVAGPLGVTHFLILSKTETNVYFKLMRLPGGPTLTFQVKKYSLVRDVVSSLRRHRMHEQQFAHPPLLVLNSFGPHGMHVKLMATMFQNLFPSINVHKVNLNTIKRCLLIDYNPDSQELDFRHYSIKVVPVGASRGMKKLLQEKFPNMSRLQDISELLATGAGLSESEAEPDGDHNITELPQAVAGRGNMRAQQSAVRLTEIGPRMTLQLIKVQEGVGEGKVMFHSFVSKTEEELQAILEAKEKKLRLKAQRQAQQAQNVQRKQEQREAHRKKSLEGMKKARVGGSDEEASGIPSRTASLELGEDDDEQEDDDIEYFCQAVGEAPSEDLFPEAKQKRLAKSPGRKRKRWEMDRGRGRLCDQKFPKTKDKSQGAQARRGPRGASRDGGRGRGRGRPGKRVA
UniProt Q99575: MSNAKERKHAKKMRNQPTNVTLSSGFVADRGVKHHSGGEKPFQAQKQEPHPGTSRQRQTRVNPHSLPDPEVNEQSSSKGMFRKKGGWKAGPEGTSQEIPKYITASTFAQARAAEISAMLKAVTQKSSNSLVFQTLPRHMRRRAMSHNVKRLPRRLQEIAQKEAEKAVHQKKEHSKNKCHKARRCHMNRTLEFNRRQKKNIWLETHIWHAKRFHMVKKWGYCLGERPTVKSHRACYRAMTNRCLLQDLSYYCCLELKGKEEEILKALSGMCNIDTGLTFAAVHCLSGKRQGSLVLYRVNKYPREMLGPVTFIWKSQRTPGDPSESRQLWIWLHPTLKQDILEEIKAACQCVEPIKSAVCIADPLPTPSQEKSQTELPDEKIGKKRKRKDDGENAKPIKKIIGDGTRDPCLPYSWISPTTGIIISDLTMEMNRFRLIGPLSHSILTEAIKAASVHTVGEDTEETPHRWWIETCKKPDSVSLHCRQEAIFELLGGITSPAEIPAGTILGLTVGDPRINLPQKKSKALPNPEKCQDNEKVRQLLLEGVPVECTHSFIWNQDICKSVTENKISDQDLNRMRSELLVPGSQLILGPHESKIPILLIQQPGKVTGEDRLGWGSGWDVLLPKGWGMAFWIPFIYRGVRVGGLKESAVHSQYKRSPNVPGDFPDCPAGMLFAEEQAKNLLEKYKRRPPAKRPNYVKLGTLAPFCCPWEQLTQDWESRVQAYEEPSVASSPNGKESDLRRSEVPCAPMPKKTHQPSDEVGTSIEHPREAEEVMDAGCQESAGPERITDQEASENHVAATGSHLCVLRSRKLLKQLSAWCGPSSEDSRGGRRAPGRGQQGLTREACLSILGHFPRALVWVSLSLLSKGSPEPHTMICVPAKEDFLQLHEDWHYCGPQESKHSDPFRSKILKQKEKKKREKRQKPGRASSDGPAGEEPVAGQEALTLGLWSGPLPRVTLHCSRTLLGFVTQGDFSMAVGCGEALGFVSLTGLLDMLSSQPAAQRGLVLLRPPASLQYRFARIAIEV
UniProt Q8TCS8: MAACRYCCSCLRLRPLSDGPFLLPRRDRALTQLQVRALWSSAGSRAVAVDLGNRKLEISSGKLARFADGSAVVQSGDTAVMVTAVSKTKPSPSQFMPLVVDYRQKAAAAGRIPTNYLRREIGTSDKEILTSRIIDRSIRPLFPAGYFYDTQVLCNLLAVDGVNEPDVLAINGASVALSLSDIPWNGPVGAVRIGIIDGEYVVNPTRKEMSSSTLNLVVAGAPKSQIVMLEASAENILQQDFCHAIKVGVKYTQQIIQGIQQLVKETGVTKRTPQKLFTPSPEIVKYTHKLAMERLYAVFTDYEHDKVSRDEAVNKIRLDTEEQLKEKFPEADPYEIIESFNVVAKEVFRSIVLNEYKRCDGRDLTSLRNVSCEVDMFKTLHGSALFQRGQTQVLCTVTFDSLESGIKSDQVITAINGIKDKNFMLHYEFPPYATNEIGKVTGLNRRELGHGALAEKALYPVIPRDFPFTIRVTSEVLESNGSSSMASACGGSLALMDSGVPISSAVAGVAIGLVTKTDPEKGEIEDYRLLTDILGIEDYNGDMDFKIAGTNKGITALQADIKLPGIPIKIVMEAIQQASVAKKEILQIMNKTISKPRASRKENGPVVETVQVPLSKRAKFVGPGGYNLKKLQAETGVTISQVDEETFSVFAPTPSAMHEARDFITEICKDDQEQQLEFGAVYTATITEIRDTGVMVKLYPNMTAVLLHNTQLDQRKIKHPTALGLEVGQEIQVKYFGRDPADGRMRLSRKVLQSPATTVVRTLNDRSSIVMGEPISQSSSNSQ
UniProt Q8WUA2: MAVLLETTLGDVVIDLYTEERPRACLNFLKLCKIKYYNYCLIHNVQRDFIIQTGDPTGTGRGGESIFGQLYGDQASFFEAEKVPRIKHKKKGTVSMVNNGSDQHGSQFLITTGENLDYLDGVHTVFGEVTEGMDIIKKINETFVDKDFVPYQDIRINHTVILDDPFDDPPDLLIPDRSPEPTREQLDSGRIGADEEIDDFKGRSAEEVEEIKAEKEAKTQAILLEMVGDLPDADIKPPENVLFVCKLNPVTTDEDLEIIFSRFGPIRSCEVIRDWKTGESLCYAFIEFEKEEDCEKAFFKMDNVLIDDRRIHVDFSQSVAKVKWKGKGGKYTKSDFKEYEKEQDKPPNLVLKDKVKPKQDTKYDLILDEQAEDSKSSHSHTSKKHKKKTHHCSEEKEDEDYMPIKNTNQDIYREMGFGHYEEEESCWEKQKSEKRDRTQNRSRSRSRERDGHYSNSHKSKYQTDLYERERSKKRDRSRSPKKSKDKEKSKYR
UniProt Q8N490: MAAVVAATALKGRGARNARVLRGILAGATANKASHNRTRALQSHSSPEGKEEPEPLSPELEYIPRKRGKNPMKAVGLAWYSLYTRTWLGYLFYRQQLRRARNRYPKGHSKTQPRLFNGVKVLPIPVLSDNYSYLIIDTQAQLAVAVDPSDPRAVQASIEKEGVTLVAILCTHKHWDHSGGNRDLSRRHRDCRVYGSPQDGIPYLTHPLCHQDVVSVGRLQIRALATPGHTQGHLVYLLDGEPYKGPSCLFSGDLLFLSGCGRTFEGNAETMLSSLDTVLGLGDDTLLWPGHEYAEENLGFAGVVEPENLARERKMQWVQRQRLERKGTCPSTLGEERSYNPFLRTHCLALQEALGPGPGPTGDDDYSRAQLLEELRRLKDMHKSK
UniProt Q9Y2G5: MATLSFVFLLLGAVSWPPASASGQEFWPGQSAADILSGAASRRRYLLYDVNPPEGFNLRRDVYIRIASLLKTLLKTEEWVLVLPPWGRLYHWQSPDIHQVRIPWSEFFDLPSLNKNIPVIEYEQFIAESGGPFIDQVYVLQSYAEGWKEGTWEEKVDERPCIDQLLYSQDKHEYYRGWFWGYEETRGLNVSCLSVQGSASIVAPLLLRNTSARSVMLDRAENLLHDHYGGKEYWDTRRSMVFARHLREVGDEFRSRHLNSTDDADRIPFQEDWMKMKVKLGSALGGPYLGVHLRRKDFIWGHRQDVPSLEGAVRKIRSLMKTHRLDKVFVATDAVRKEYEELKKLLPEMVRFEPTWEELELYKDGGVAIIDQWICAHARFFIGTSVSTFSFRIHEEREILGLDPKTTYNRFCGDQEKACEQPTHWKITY
UniProt Q9NP80: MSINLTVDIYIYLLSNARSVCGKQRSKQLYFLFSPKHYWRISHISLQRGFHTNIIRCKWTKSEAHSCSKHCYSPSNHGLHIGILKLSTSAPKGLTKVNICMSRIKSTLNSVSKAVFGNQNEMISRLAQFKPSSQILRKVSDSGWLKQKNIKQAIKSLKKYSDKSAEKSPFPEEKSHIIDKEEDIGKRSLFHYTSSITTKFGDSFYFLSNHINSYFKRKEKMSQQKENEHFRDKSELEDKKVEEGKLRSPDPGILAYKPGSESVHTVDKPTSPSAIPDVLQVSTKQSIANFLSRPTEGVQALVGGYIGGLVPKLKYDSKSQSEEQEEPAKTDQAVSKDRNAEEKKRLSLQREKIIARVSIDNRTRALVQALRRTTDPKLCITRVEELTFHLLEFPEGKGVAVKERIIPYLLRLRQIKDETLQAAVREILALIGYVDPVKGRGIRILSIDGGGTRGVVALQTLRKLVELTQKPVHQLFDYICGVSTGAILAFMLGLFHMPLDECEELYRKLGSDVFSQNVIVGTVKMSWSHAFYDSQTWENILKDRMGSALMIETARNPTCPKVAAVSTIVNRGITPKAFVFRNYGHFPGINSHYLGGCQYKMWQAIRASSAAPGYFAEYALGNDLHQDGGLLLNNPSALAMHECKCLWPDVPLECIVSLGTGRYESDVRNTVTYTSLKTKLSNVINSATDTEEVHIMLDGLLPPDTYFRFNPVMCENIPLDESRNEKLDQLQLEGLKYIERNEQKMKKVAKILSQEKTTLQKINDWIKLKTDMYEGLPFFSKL
UniProt Q8IWE5: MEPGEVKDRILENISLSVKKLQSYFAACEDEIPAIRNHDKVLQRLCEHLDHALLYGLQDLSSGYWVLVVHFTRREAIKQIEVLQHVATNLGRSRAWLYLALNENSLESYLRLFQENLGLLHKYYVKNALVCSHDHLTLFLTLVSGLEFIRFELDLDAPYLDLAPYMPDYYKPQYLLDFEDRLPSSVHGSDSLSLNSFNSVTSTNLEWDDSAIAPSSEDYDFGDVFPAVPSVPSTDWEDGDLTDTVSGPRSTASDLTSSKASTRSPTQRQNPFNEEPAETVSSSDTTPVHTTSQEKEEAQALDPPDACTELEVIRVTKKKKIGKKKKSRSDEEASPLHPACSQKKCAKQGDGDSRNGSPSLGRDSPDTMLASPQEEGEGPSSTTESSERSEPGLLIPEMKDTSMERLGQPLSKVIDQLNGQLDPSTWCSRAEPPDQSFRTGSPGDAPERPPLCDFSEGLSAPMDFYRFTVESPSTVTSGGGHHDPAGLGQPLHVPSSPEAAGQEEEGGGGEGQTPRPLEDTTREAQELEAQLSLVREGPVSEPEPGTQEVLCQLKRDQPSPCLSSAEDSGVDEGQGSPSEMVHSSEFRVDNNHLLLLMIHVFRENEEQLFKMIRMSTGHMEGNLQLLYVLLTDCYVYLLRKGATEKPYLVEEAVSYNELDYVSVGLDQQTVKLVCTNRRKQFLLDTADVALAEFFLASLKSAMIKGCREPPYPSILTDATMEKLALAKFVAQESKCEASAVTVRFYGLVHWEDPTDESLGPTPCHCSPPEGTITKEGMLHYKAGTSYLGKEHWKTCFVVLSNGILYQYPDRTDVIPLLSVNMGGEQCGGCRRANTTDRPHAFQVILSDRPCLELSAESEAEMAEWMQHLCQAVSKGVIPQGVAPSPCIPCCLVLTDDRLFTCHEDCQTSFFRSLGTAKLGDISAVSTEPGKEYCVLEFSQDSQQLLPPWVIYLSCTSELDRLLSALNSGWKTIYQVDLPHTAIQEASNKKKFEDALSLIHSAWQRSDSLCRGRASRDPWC
UniProt P35813: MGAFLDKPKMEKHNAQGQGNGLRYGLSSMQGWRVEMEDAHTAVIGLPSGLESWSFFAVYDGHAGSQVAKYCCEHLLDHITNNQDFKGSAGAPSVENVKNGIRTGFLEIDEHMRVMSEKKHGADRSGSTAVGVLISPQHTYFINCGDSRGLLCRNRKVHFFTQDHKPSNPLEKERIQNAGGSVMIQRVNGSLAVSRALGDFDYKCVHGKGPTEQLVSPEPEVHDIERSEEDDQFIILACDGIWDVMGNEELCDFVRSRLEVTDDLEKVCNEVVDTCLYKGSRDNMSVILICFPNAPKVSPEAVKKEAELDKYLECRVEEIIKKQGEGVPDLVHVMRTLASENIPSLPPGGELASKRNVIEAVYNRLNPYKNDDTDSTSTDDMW

Columns and labels:
Test in all cases: log2 fold change, soluble protein after heating vs DMSO (PISA); higher = thermal stabilisation; K562 cells, 10 uM, 30 min; active = over 0.2 and 3.5 SD of the protein, either way, in both replicates (recomputed)
bafetinib = compound: Cc1ccc(NC(=O)c2ccc(CN3CC[C@H](N(C)C)C3)c(C(F)(F)F)c2)cc1Nc1nccc(-c2cncnc2)n1 [bafetinib]
Outline: (§1)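 Soluble protein was quantified by TMTpro 16plex LC-MS/MS after channel sums were equalised. It was obtained as the supernatant after 21,000xg for 90 min from pooled aliquots of K562 cells (2×10^6 cells/mL, 10 μM compound, 30 min) heated for 3 min across 48°C-58°C and extracted in PBS with 0.5% NP-40 at 4°C. Thermal stability values are relative to control samples and come from duplicates. They are given as log2 fold changes.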

[1] = compound: Cc1cccc(CC(=O)N2CCc3c2ccc(-c2cn(C)c4ncnc(N)c24)c3F)n1
Outline: as §1

nilotinib = compound: Cc1cn(-c2cc(NC(=O)c3ccc(C)c(Nc4nccc(-c5cccnc5)n4)c3)cc(C(F)(F)F)c2)cn1 [nilotinib]
Outline: as §1

[2] = compound: Cc1nc(Nc2n[nH]c3c2CN(C(=O)N[C@H](CN(C)C)c2ccccc2)C3(C)C)c2sccc2n1
Outline: as §1

dasatinib = compound: Cc1nc(Nc2ncc(C(=O)Nc3c(C)cccc3Cl)s2)cc(N2CCN(CCO)CC2)n1 [dasatinib]
Outline: as §1

[3] = compound: Cc1ncc(-c2ccnc(Nc3ccc(S(C)(=O)=O)cc3)n2)n1C(C)C
Outline: as §1

[4] = compound: Cn1cc(-c2ccc3c(c2)CCN3C(=O)Cc2cccc(C(F)(F)F)c2)c2c(N)ncnc21
Outline: as §1

[5] = compound: Cn1cc(-c2ccc3nnc(C(F)(F)c4ccc5ncccc5c4)n3n2)cn1
Outline: as §1

tipifarnib = compound: Cn1cncc1[C@@](N)(c1ccc(Cl)cc1)c1ccc2c(c1)c(-c1cccc(Cl)c1)cc(=O)n2C [tipifarnib]
Outline: as §1

mubritinib = compound: FC(F)(F)c1ccc(/C=C/c2nc(COc3ccc(CCCCn4ccnn4)cc3)co2)cc1 [mubritinib]
Outline: as §1

Row | Target | log2 fold change (bafetinib) | log2 fold change [1] | log2 fold change (nilotinib) | log2 fold change [2] | log2 fold change (dasatinib) | log2 fold change [3] | log2 fold change [4] | log2 fold change [5] | log2 fold change (tipifarnib) | log2 fold change (mubritinib)
1 | POM121 (UniProt Q96HA1) | inactive: -0.114 | inactive: 0.012 | inactive: 0.135 | inactive: 0 | inactive: -0.051 | inactive: -0.177 | inactive: -0.081 | inactive: -0.063 | inactive: 0.021 | 
2 | PLSCR1 (UniProt O15162) | inactive: 0.011 | inactive: 0.002 | inactive: -0.004 | inactive: -0.022 | inactive: 0.052 | inactive: -0.032 | inactive: 0.024 | inactive: 0.048 | inactive: 0.036 | inactive: 0.148
3 | PMPCB (UniProt O75439) | inactive: 0.035 | inactive: 0.025 | inactive: -0.054 | inactive: 0.089 | inactive: 0.098 | inactive: -0.04 | inactive: 0.105 | inactive: 0.046 | active: 0.269 | inactive: 0.053
4 | PPAN isoform 3 (UniProt Q9NQ55) | inactive: 0.312 | inactive: -0.052 | inactive: -0.127 | inactive: 0.081 | inactive: 0.094 | inactive: -0.068 | inactive: -0.424 | inactive: -0.272 | inactive: 0.186 | inactive: -0.02
5 | POP1 (UniProt Q99575) | inactive: 0.019 | inactive: 0.002 | inactive: 0.074 | inactive: -0.018 | inactive: 0.039 | inactive: -0.037 | inactive: 0.042 | inactive: 0.007 | inactive: -0.036 | inactive: -0.006
6 | POLR2K (UniProt P53803) | inactive: -0.052 | inactive: -0.057 | inactive: -0.021 | inactive: 0.029 | inactive: 0.081 | inactive: 0.089 | inactive: 0.006 | inactive: 0.019 | inactive: -0.036 | inactive: -0.008
7 | PLXNA1 (UniProt Q9UIW2) | inactive: 0.045 | inactive: -0.012 | inactive: -0.055 | inactive: 0.027 | inactive: 0.019 | inactive: -0.039 | inactive: 0.066 | inactive: 0.014 | inactive: 0.025 | inactive: 0.03
8 | POLR3D (UniProt P05423) | inactive: -0.052 | inactive: 0.044 | inactive: 0.023 | inactive: -0.125 | inactive: 1.17 | inactive: 0.057 | inactive: -0.082 | inactive: 0.046 | inactive: 0.018 | inactive: -0.072
9 | PNPT1 (UniProt Q8TCS8) | inactive: 0.007 | inactive: -0.009 | inactive: -0.047 | inactive: -0.018 | inactive: -0.14 | inactive: 0.037 | inactive: 0.025 | inactive: 0.024 | inactive: 0 | inactive: -0.018
10 | POP4 (UniProt O95707) | inactive: 0.08 | inactive: -0.066 | inactive: -0.005 | inactive: 0.015 | inactive: 0.02 | inactive: 0.003 | inactive: 0.027 | inactive: -0.083 | inactive: -0.015 | inactive: 0.038
11 | PPAT (UniProt Q06203) | inactive: -0.025 | inactive: -0.021 | inactive: 0.01 | inactive: 0.006 | inactive: 0.015 | inactive: 0.002 | inactive: 0.066 | inactive: 0.006 | inactive: 0.015 | inactive: 0.026
12 | POLD4 (UniProt Q9HCU8) | inactive: -0.005 | inactive: -0.064 | inactive: -0.03 | inactive: 0.113 | inactive: 0.011 | inactive: -0.033 | inactive: 0.346 | inactive: 0.033 | inactive: 0.007 | inactive: 0.096
13 | POLD1 (UniProt P28340) | inactive: -0.055 | inactive: 0.023 | inactive: -0.03 | inactive: -0.006 | inactive: -0.049 | inactive: -0.052 | inactive: 0.063 | inactive: 0.01 | inactive: -0.066 | inactive: 0.006
14 | PPIL4 (UniProt Q8WUA2) | inactive: -0.001 | inactive: 0.002 | inactive: 0.002 | active: -0.483 | inactive: -0.065 | inactive: -0.113 | inactive: -0.031 | inactive: -0.018 | inactive: -0.01 | inactive: 0.005
15 | POLR3E (UniProt Q9NVU0) | inactive: 0.059 | inactive: 0.125 | inactive: -0.234 | inactive: -0.189 | inactive: -0.3 | inactive: 0.053 | inactive: -0.063 | inactive: 0.041 | inactive: -0.149 | inactive: -0.016
16 | PNKD isoform 2 (UniProt Q8N490) | inactive: -0.05 | inactive: -0.038 | inactive: -0.011 | inactive: -0.01 | inactive: -0.065 | inactive: -0.003 | inactive: 0.017 | inactive: 0.152 | inactive: 0.041 | inactive: 0.014
17 | POP7 (UniProt O75817) | inactive: 0.104 | inactive: -0.001 | inactive: 0.043 | inactive: -0.062 | inactive: 0.051 | inactive: -0.044 | inactive: -0.077 | inactive: -0.059 | inactive: 0.014 | inactive: -0.024
18 | POFUT2 (UniProt Q9Y2G5) | inactive: 0.007 | inactive: -0.007 | inactive: -0.039 | inactive: 0.055 | inactive: 0.137 | inactive: -0.024 | inactive: -0.033 | inactive: 0.031 | inactive: 0.05 | inactive: -0.057
19 | PNPLA8 (UniProt Q9NP80) | inactive: -0.04 | inactive: -0.13 | inactive: 0.036 | inactive: -0.026 | inactive: -0.055 | inactive: 0.038 | inactive: 0.036 | inactive: -0.063 | inactive: 0.053 | inactive: 0.095
20 | POTEF (UniProt A5A3E0) | inactive: -0.04 | inactive: -0.022 | inactive: 0.014 | inactive: -0.029 | inactive: 0.016 | inactive: 0.015 | inactive: 0.001 | inactive: -0.015 | inactive: 0.038 | inactive: 0.043
21 | PLEKHM2 (UniProt Q8IWE5) | inactive: -0.09 | inactive: -0.024 | inactive: -0.054 | inactive: -0.002 | inactive: -0.072 | inactive: -0.077 | inactive: 0.001 | inactive: -0.08 | inactive: -0.028 | inactive: 0.096
22 | PPM1A isoform 3 (UniProt P35813) | inactive: 0.003 | inactive: -0.003 | inactive: 0.032 | inactive: 0.119 | inactive: -0.072 | inactive: -0.015 | inactive: 0.011 | inactive: 0.051 | inactive: -0.058 | inactive: 0.138
23 | POFUT1 (UniProt Q9H488) | inactive: -0.023 | inactive: 0 | inactive: 0.039 | inactive: 0.016 | inactive: 0.049 | inactive: -0.008 | inactive: -0.068 | inactive: -0.065 | inactive: 0.049 | inactive: -0.017
24 | PMM2 (UniProt O15305) | inactive: -0.098 | inactive: 0.003 | active: -0.291 | inactive: -0.054 | inactive: -0.018 | inactive: -0.015 | inactive: 0.035 | inactive: 0.013 | inactive: 0.018 | inactive: 0.028
25 | POLR3A (UniProt O14802) | inactive: 0.009 | inactive: 0.017 | inactive: 0.186 | inactive: -0.048 | inactive: -0.184 | inactive: -0.099 | inactive: -0.066 | inactive: 0.017 | inactive: -0.015 | inactive: -0.04
26 | POLR2F (UniProt P61218) | inactive: 0.149 | inactive: -0.152 | inactive: -0.261 | inactive: -0.046 | inactive: -0.137 | inactive: 0.154 | inactive: 0.144 | inactive: 0.028 | inactive: -0.065 | inactive: 0.011
27 | POLR3H (UniProt Q9Y535) | inactive: 0.026 | inactive: -0.04 | inactive: -0.091 | inactive: -0.115 | inactive: 0.031 | inactive: 0.049 | inactive: 0.019 | inactive: 0.002 | inactive: -0.006 | inactive: 0.148

From entry 25 up to 26, copied from above:
Row | Target | log2 fold change (bafetinib) | log2 fold change [1] | log2 fold change (nilotinib) | log2 fold change [2] | log2 fold change (dasatinib) | log2 fold change [3] | log2 fold change [4] | log2 fold change [5] | log2 fold change (tipifarnib) | log2 fold change (mubritinib)
25 | POLR3A (UniProt O14802) | inactive: 0.009 | inactive: 0.017 | inactive: 0.186 | inactive: -0.048 | inactive: -0.184 | inactive: -0.099 | inactive: -0.066 | inactive: 0.017 | inactive: -0.015 | inactive: -0.04
26 | POLR2F (UniProt P61218) | inactive: 0.149 | inactive: -0.152 | inactive: -0.261 | inactive: -0.046 | inactive: -0.137 | inactive: 0.154 | inactive: 0.144 | inactive: 0.028 | inactive: -0.065 | inactive: 0.011
